Measured values: patent US20170333591A9, “ABSORBENT ARTICLE COMPRISING MALODOR REDUCTION COMPOSITIONS” (The Procter & Gamble Company, priority 2014, published 2017)
Some entries repeat one wording, which the source may state once for all of them.

Tests used:
[1] = Melamine formaldehyde PMC leakage; conditions: for Melamine formaldehyde PMC leakage (Comment Code): code letter J of the Comment Code column
[2] = Melamine formaldehyde PMC Headspace Response Ratio
[3] = code letter within the Comment Code cell

| SMILES | Comment Code: Melamine formaldehyde PMC leakage [1] | Comment Code: Melamine formaldehyde PMC Headspace Response Ratio [2] | other results |
| --- | --- | --- | --- |
| CC1(C)[C@@H]2CC[C@@]1(C)[C@H](O)C2 [Material 232] | J (Melamine formaldehyde PMC leakage less than or equal to 5%) | – | – |
| CC1=CC[C@H]2C[C@@H]1C2(C)C [Material 903] | J (Melamine formaldehyde PMC leakage less than or equal to 5%) | I (Melamine formaldehyde PMC Headspace Response Ratio greater than or equal to 10) | – |
| CC/C(C)=C/CC/C(C)=C\C#N [Material 158] | – | – | Melamine formaldehyde PMC leakage (Comment Code J) [1, 3]: J (Melamine formaldehyde PMC leakage less than or equal to 5%) |
| C=CC(C)CCC=C(C)CCC=O (racemic) [Material 358] | – | – | Melamine formaldehyde PMC leakage (Comment Code J) [1, 3]: J (Melamine formaldehyde PMC leakage less than or equal to 5%) |
| CC1=CCCC2(C)OC2CCC(C)=CCC1 (centres unmarked) [Material 568] | – | – | Melamine formaldehyde PMC leakage (Comment Code) [1]: J (Melamine formaldehyde PMC leakage less than or equal to 5%) |
| CC(=O)OC(C)CCC=C(C)CCC=C(C)C (centres unmarked) [Material 881] | – | – | Melamine formaldehyde PMC leakage (Comment Code) [1]: J (Melamine formaldehyde PMC leakage less than or equal to 5%) |
| CCCCCC(=O)O [Material 583] | – | I (Melamine formaldehyde PMC Headspace Response Ratio greater than or equal to 10) | – |
| CCc1ccc(OC)c(O)c1 [Material 797] | – | I (Melamine formaldehyde PMC Headspace Response Ratio greater than or equal to 10) | – |
| CC1CC2C3CCC(C3)C2CC1=O (centres unmarked) [Material 980] | – | – | Melamine formaldehyde PMC leakage (Comment Code) [1]: J (Melamine formaldehyde PMC leakage less than or equal to 5%) |
| CC(C)(C)C(=O)OC1CC2CC1C1CC=CC21 (centres unmarked) [Material 978] | J (Melamine formaldehyde PMC leakage less than or equal to 5%) | – | Melamine formaldehyde PMC leakage (Comment Code) [1]: J (Melamine formaldehyde PMC leakage less than or equal to 5%) |
| CC1=CCC2CC1C2(C)C (centres unmarked) [Material 1001] | J (Melamine formaldehyde PMC leakage less than or equal to 5%) | I (Melamine formaldehyde PMC Headspace Response Ratio greater than or equal to 10) | – |
| CCCCCCCC1CCC(=O)O1 (centres unmarked) [Material 316] | – | – | Melamine formaldehyde PMC leakage (Comment Code J) [1, 3]: J (Melamine formaldehyde PMC leakage less than or equal to 5%) |
| CC1(C)C2CCC1(C)C(O)C2 (centres unmarked) [Material 605] | J (Melamine formaldehyde PMC leakage less than or equal to 5%) | – | – |
| CC1=CC[C@@H]2C[C@H]1C2(C)C [Material 901] | J (Melamine formaldehyde PMC leakage less than or equal to 5%) | I (Melamine formaldehyde PMC Headspace Response Ratio greater than or equal to 10) | – |
| COC(=O)c1c(C)cc(O)c(C)c1O [Material 1117] | – | – | Melamine formaldehyde PMC Headspace Response Ratio (Comment Code I) ([2]; Comment Code letter I): I (Melamine formaldehyde PMC Headspace Response Ratio greater than or equal to 10); Melamine formaldehyde PMC leakage (Comment Code J) ([1]; Comment Code letter J): J (Melamine formaldehyde PMC leakage less than or equal to 5%) |
| C=CCCCCCCCC=CCC#N [Material 137] | – | – | Melamine formaldehyde PMC leakage (Comment Code J) [1, 3]: J (Melamine formaldehyde PMC leakage less than or equal to 5%) |
| CC=CCCC1CCCC(=O)O1 (racemic) [Material 187] | – | – | Melamine formaldehyde PMC Headspace Response Ratio (Comment Code I) [2, 3]: I (Melamine formaldehyde PMC Headspace Response Ratio greater than or equal to 10) |
| C=C(C)[C@@H]1CC[C@@H](C)C(=O)C1 [Material 1081] | J (Melamine formaldehyde PMC leakage less than or equal to 5%) | I (Melamine formaldehyde PMC Headspace Response Ratio greater than or equal to 10) | – |
| CC(C)C=CCO [Material 194] | – | I (Melamine formaldehyde PMC Headspace Response Ratio greater than or equal to 10) | – |
| CC(C)=CCCC(C)=CCC1CCCC1=O (racemic) [Material 307] | – | – | Melamine formaldehyde PMC leakage (Comment Code J) [1, 3]: J (Melamine formaldehyde PMC leakage less than or equal to 5%) |
